PubChem BioAssay AID1259405 | NCATS, 2018
Screen: 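Knock-downs that lift recombinant protein yield in hamster ovary cells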 (primary screen). Cell system: Chinese hamster CHO-K1 ovary cells with stable secreted eGFP expression. Reagents: single siRNA against mouse genes, 0.8 pmol siRNA per well (2 µl of 400 nM stock). Time to read-out: 3 days. Detection: 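Per-well intracellular GFP measured by laser scanning cytometry, plus viability from ATP luminescence, each relative to plate median of non-targeting control wells, in %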. Direction: GFP, % of control: higher = more GFP per well, higher productivity; viability (ATP), % of control: higher = more viable cells (more ATP). Call rule: 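a knock-down is called active if GFP reaches 120% or more of non-targeting control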.
In all, the deposit lists about 50,000 reagents; shown is a part drawn at random. About 4,000 of all reagents (8%) count as active. 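Mouse siRNA library applied to hamster cells; one well for each siRNA.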 Entries without a mark were called inactive. The numbers tell different reagents against one gene apart. Reagent sequences are not shown.

{"Gene":"Plscr3","reagent no.":1,"GFP, % of control":87.6,"viability (ATP), % of control":73.1}
{"Gene":"Plscr3","reagent no.":2,"GFP, % of control":"136 (active)","viability (ATP), % of control":104}
{"Gene":"Plscr3","reagent no.":3,"GFP, % of control":73.3,"viability (ATP), % of control":101}
{"Gene":"Decr1","reagent no.":1,"GFP, % of control":75.3,"viability (ATP), % of control":93.3}
{"Gene":"Decr1","reagent no.":2,"GFP, % of control":75.7,"viability (ATP), % of control":51.5}
{"Gene":"Decr1","reagent no.":3,"GFP, % of control":61.3,"viability (ATP), % of control":60.2}
{"Gene":"Carns1","reagent no.":1,"GFP, % of control":55.7,"viability (ATP), % of control":67.9}
{"Gene":"Carns1","reagent no.":2,"GFP, % of control":67.3,"viability (ATP), % of control":105}
{"Gene":"Carns1","reagent no.":3,"GFP, % of control":66,"viability (ATP), % of control":56.2}
{"Gene":"Ccl1","reagent no.":1,"GFP, % of control":49.1,"viability (ATP), % of control":58.1}
{"Gene":"Ccl1","reagent no.":2,"GFP, % of control":87.7,"viability (ATP), % of control":62.5}
{"Gene":"Ccl1","reagent no.":3,"GFP, % of control":92,"viability (ATP), % of control":56}
{"Gene":"Foxm1","reagent no.":1,"GFP, % of control":84.6,"viability (ATP), % of control":81.6}
{"Gene":"Foxm1","reagent no.":2,"GFP, % of control":78.2,"viability (ATP), % of control":58}
{"Gene":"Foxm1","reagent no.":3,"GFP, % of control":99.8,"viability (ATP), % of control":98.8}
{"Gene":"Mis18a","reagent no.":1,"GFP, % of control":91.3,"viability (ATP), % of control":68.7}
{"Gene":"Mis18a","reagent no.":2,"GFP, % of control":32.4,"viability (ATP), % of control":33.1}
{"Gene":"Mis18a","reagent no.":3,"GFP, % of control":85.5,"viability (ATP), % of control":73.1}
{"Gene":"Pigs","reagent no.":1,"GFP, % of control":"127 (active)","viability (ATP), % of control":66.3}
{"Gene":"Pigs","reagent no.":2,"GFP, % of control":62.6,"viability (ATP), % of control":64.8}
{"Gene":"Pigs","reagent no.":3,"GFP, % of control":103,"viability (ATP), % of control":105}
{"Gene":"Cybb","reagent no.":1,"GFP, % of control":80.8,"viability (ATP), % of control":77.5}
{"Gene":"Cybb","reagent no.":2,"GFP, % of control":85,"viability (ATP), % of control":68.7}
{"Gene":"Cybb","reagent no.":3,"GFP, % of control":"193 (active)","viability (ATP), % of control":118}
{"Gene":"Cd80","reagent no.":1,"GFP, % of control":63.5,"viability (ATP), % of control":62.1}
{"Gene":"Cd80","reagent no.":2,"GFP, % of control":92.6,"viability (ATP), % of control":76.1}
{"Gene":"Cd80","reagent no.":3,"GFP, % of control":64.8,"viability (ATP), % of control":68.2}
{"Gene":"Zfp354c","reagent no.":1,"GFP, % of control":68.4,"viability (ATP), % of control":68.9}
{"Gene":"Zfp354c","reagent no.":2,"GFP, % of control":57.9,"viability (ATP), % of control":75.2}
{"Gene":"Zfp354c","reagent no.":3,"GFP, % of control":77.4,"viability (ATP), % of control":81.9}
{"Gene":"Dmac2l","reagent no.":1,"GFP, % of control":101,"viability (ATP), % of control":62.2}
{"Gene":"Dmac2l","reagent no.":2,"GFP, % of control":64,"viability (ATP), % of control":66}
{"Gene":"Dmac2l","reagent no.":3,"GFP, % of control":73.7,"viability (ATP), % of control":74.2}
{"Gene":"Asns","reagent no.":1,"GFP, % of control":53.5,"viability (ATP), % of control":61.9}
{"Gene":"Asns","reagent no.":2,"GFP, % of control":65,"viability (ATP), % of control":58.5}
{"Gene":"Asns","reagent no.":3,"GFP, % of control":69.6,"viability (ATP), % of control":67.8}
{"Gene":"Trpm4","reagent no.":1,"GFP, % of control":113,"viability (ATP), % of control":103}
{"Gene":"Trpm4","reagent no.":2,"GFP, % of control":90.4,"viability (ATP), % of control":81}
{"Gene":"Trpm4","reagent no.":3,"GFP, % of control":98,"viability (ATP), % of control":113}
{"Gene":"Mrpl18","reagent no.":1,"GFP, % of control":44.8,"viability (ATP), % of control":50.2}
{"Gene":"Mrpl18","reagent no.":2,"GFP, % of control":"123 (active)","viability (ATP), % of control":82.9}
{"Gene":"Mrpl18","reagent no.":3,"GFP, % of control":107,"viability (ATP), % of control":59.1}
{"Gene":"Or4c115","reagent no.":1,"GFP, % of control":83.6,"viability (ATP), % of control":90.7}
{"Gene":"Or4c115","reagent no.":2,"GFP, % of control":68.6,"viability (ATP), % of control":84.4}
{"Gene":"Or4c115","reagent no.":3,"GFP, % of control":41.5,"viability (ATP), % of control":108}
{"Gene":"Nedd9","reagent no.":1,"GFP, % of control":57,"viability (ATP), % of control":82}
{"Gene":"Nedd9","reagent no.":2,"GFP, % of control":66.4,"viability (ATP), % of control":85.4}
{"Gene":"1110059E24Rik","reagent no.":1,"GFP, % of control":58.9,"viability (ATP), % of control":72.1}
{"Gene":"1110059E24Rik","reagent no.":2,"GFP, % of control":94,"viability (ATP), % of control":66.7}
{"Gene":"1110059E24Rik","reagent no.":3,"GFP, % of control":55,"viability (ATP), % of control":72}
{"Gene":"Med28","reagent no.":1,"GFP, % of control":62.9,"viability (ATP), % of control":89.8}
{"Gene":"Med28","reagent no.":2,"GFP, % of control":53.6,"viability (ATP), % of control":70.8}
{"Gene":"Med28","reagent no.":3,"GFP, % of control":"182 (active)","viability (ATP), % of control":109}

Sorted by “viability (ATP), % of control” (highest first): some entries from above
{"Gene":"Zfp354c","reagent no.":3,"GFP, % of control":77.4,"viability (ATP), % of control":81.9}
{"Gene":"Zfp354c","reagent no.":2,"GFP, % of control":57.9,"viability (ATP), % of control":75.2}
{"Gene":"Dmac2l","reagent no.":3,"GFP, % of control":73.7,"viability (ATP), % of control":74.2}
{"Gene":"Asns","reagent no.":3,"GFP, % of control":69.6,"viability (ATP), % of control":67.8}
{"Gene":"Dmac2l","reagent no.":2,"GFP, % of control":64,"viability (ATP), % of control":66}
{"Gene":"Dmac2l","reagent no.":1,"GFP, % of control":101,"viability (ATP), % of control":62.2}
{"Gene":"Asns","reagent no.":1,"GFP, % of control":53.5,"viability (ATP), % of control":61.9}
{"Gene":"Asns","reagent no.":2,"GFP, % of control":65,"viability (ATP), % of control":58.5}
